In patent US8849577B2, “Methods of identifying biochemical pathways” (Metabolon, Inc., priority 2006, dated 2014):

Test system: adipocyte cells
Test: Metabolomic analysis of test compounds in adipocyte cultures
Assay type: cell-based, human
Procedure: The cell cultures used in this example were performed according to standard protocols with the cells in 10% FCS. […] The adipocytes were human and fully differentiated.
The target of the agent is not present in the cell cultures assayed, thus the changed compounds for each culture represent off-target effects, and therefore, the number of changed compounds can be used to generate a score that can be used as one criteria to rank the test compounds.

SMILES | rank of test compounds by number of changed compounds (off-target effects)
COC(=O)N[C@H](C(=O)N[C@@H](Cc1ccccc1)[C@@H](O)CN(Cc1ccc(-c2ccccn2)cc1)NC(=O)[C@@H](NC(=O)OC)C(C)(C)C)C(C)(C)C [ATV] | followed by ATV and LPV
Cc1cccc(C)c1OCC(=O)N[C@@H](Cc1ccccc1)[C@@H](O)C[C@H](Cc1ccccc1)NC(=O)[C@H](C(C)C)N1CCCNC1=O [LPV] | followed by ATV and LPV
